According to PubChem BioAssay AID504834 (National Center for Advancing Translational Sciences (NCATS), 2011):
Hit rate of the full screen: of about 320,000 compounds, about 22,000 (6.9%) were called active. The inconclusive results got no clear call from the source; some entries with a clear call stand among them for comparison. Calls follow the shape of the dose curve; as a rule, active = well fitted inhibition curve with a large enough effect; inconclusive = small, poorly fitted or top-dose-only effect, or another doubt; inactive = no such curve, though single readings can be large or run the other way. Where the call is inconclusive, the potency comes from a doubtful curve fit.

experiment: Primary qHTS for delayed death inhibitors of the malarial parasite plastid, 96 hour incubation; conditions: P. falciparum luciferase reporter growth; series mostly up to 28.7 µM; activity change, negative = inhibition: at the top concentration
Procedure, shortened: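 Delayed-death screen, second-generation endpoint: infected erythrocytes, 2% hematocrit, 0.05% parasitemia final; 96 hours at 37 C, 5% CO2; luciferase detection reagent; luminescence decrease equals reduced growth.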
% is scaled to controls: 0 for no effect and ±100 for the full control effect; potency is read from the fitted curve at half-maximal effect.

For `CCN(c1ccc(OC)cc1)S(=O)(=O)c1nnc(NC(=O)c2ccccc2Cl)s1`, which “activity change, negative = inhibition” value is on record?
Its value is inactive: 30.8%.

For `CC(=O)c1ccc(NC(=S)Nc2ccc(Br)c(Cl)c2)cc1`, which “activity change, negative = inhibition” value is on record?
The value was inactive: -0.885%.

For `CNC(=O)c1nnsc1S(=O)c1ccc(Cl)cc1` (stereo not given), which Potency is on record?
Its Potency is inconclusive: 13.1 µM [inhibitor, single point].

Which Potency does the source give for `C=CCn1c(SCC(=O)c2c(N)n(CCC)c(=O)n(C)c2=O)nnc1-c1ccncc1` here?
Its Potency is inconclusive: 13.1 µM [inhibitor, single point].

For `CCN1CCN(c2ncnc3c2cnn3-c2ccccc2)CC1`, which “activity change, negative = inhibition” value is on record?
Its value is inactive: 139%.

With `O=C(N/N=C/c1cccnc1)c1ccccc1NS(=O)(=O)c1cccs1` as the molecule, how does the Potency read?
The Potency was inconclusive: 7.38 µM [inhibitor, partial curve].

For `CC(=O)c1sc(NC(=O)CCNC(=O)c2ccco2)nc1-c1ccccc1`, which Potency is on record?
Its Potency is inconclusive: 14.7 µM [inhibitor, single point].

With `COCCCNC(=O)CSc1c2c(nc3ccc(Cl)cc13)CCCC2` as the molecule, how does the Potency read?
Its Potency is inconclusive: 1.04 µM [inhibitor, partial curve, poor fit].

With `Cc1cc(=O)c2cc(Br)ccc2n1CC(=O)NCc1ccccc1` as the molecule, how does the Potency read?
The Potency was inconclusive: 0.928 µM [inhibitor, partial curve, poor fit].

With `COc1cccc(NC(=O)CN(C)C(=O)c2cc(-c3ccccc3)nc3ccccc23)c1` as the molecule, how does the Potency read?
Its Potency is inconclusive: 13.1 µM [inhibitor, partial curve].

For `CC(C)(C)N1C(=O)NC(=O)/C(=C\c2ccc3c(c2)CCN3CCCCl)C1=O`, which Potency is on record?
Its Potency is inconclusive: 0.0828 µM [inhibitor, partial curve, poor fit].

With `Cc1ccc(N(CN2C(=O)C3C4CCC(C4)C3C2=O)C(=O)c2ccco2)cc1` (stereo not given) as the molecule, how does the Potency read?
Its Potency is inconclusive: 11.7 µM [inhibitor, single point].

Which Potency does the source give for `CCN(CC)CCCNc1nc(CN2CCOCC2)nc2sc3c(c12)CCC3` here?
Its Potency is inconclusive: 11.7 µM [inhibitor, single point].

For `Cc1cc(C(=O)OCC(=O)N2CCc3ccccc32)ccc1[N+](=O)[O-]`, which “activity change, negative = inhibition” value is on record?
The value was inactive: 2.29%.

With `N#C/C(=C\c1cc([N+](=O)[O-])c(N2CCCCC2)cc1N1CCCCC1)c1nn(-c2ccccc2)c(N)c1C#N` as the molecule, how does the Potency read?
The Potency was inconclusive: 6.57 µM [inhibitor, partial curve].

Which Potency does the source give for `CCC(=O)N(Cc1cc2cc(OC)ccc2[nH]c1=O)c1ccc(C)cc1` here?
The Potency was inconclusive: 2.94 µM [inhibitor, full curve].

For `CNC(=O)/C(C#N)=C/c1ccc(-c2ccc(OC)cc2[N+](=O)[O-])o1`, which Potency is on record?
The Potency was inconclusive: 0.0037 µM [inhibitor, full curve, poor fit].

With `CCN(Cc1nc2ccccc2c(=O)[nH]1)C(=O)C1CC(=O)N(c2cccc3ccccc23)C1` (stereo not given) as the molecule, how does the Potency read?
The Potency was inconclusive: 11.7 µM [inhibitor, partial curve, poor fit].

With `COC(=O)c1[nH]c2cccc(OC)c2c1NC(=O)C(C)N1CCC(C)CC1` (stereo not given) as the molecule, how does the Potency read?
Its Potency is inconclusive: 8.28 µM [inhibitor, partial curve, poor fit].

Which Potency does the source give for `Clc1ccc(CSc2nc3ccncc3[nH]2)cc1` here?
The Potency was active: 4.65 µM.

With `COc1ccc(NC(=S)NC(NC(=O)CF)C(Cl)(Cl)Cl)c([N+](=O)[O-])c1` (stereo not given) as the molecule, how does the Potency read?
Its Potency is inconclusive: 18.5 µM [inhibitor, single point].

With `COCCCNC(=O)c1cc2c(=O)n3cccc(C)c3nc2s1` as the molecule, how does the Potency read?
Its Potency is inconclusive: 0.165 µM [inhibitor, full curve, poor fit].

For `CC1(C)CC(n2[nH]c(=O)c3c2NC(=O)CSC3c2ccccc2)CCO1` (stereo not given), which Potency is on record?
The Potency was inconclusive: 14.7 µM [inhibitor, single point].

For `CCCC(=O)Nc1ccc2c(c1)nc(CCNC(=O)c1ccco1)n2C`, which “activity change, negative = inhibition” value is on record?
Its value is inactive: 0%.

Which “activity change, negative = inhibition” value does the source give for `Cc1ccc(C(=O)NCC(=O)OCC(=O)Nc2ccc(Cl)cn2)cc1` here?
Its value is inactive: -9.65%.

Which Potency does the source give for `COCCN1C(=O)N(c2cccc(C)c2)C(=O)C1CC(=O)Nc1cc(OC)cc(OC)c1` (stereo not given) here?
Its Potency is inconclusive: 1.85 µM [inhibitor, partial curve, poor fit].

Which “activity change, negative = inhibition” value does the source give for `Cn1cc(CN2CCCC(C(=O)Nc3ccc(-c4cccc(F)c4)cc3)C2)cn1` (stereo not given) here?
The value was inactive: 0.0994%.

With `Cc1cccc(NC(=O)N(Cc2cc3cc(C)cc(C)c3[nH]c2=O)CC2COCCO2)c1` (stereo not given) as the molecule, how does the Potency read?
Its Potency is inconclusive: 18.5 µM [inhibitor, single point].

With `Cc1noc(C)c1CSc1nnc(C)c(=O)[nH]1` as the molecule, how does the “activity change, negative = inhibition” value read?
Its value is inactive: 12.6%.

Which Potency does the source give for `NC(=O)c1ccc(NC(=O)c2ccc3c(c2)CCN3S(=O)(=O)c2ccccc2)cc1` here?
The Potency was inconclusive: 18.5 µM [inhibitor, single point].

Which “activity change, negative = inhibition” value does the source give for `CC(=O)c1cnc(Nc2ccc(C)cc2)s1` here?
Its value is inactive: 59.1%.

For `CCn1nc(NC(=O)CC(C)C)c2cc3ccc(C)cc3nc21`, which Potency is on record?
Its Potency is inconclusive: 5.22 µM [inhibitor, single point].

Which “activity change, negative = inhibition” value does the source give for `CC(=O)Nc1ccc(N(CC(=O)NC2CCCCC2)C(=O)Cn2nnc(-c3ccccc3)n2)cc1` here?
Its value is inactive: -11%.

For `CC(C)c1ccc(O)c(NC(=O)c2cncc(Br)c2)c1`, which Potency is on record?
The Potency was inconclusive: 10.4 µM [inhibitor, partial curve, poor fit].

Which “activity change, negative = inhibition” value does the source give for `Cc1cc2nsnc2c(S(=O)(=O)N2CCN(C)CC2)c1C` here?
Its value is inactive: 6.25%.

With `CCOCc1cnc(C)nc1NCC(=O)c1c(C)[nH]c2ccccc12` as the molecule, how does the Potency read?
Its Potency is active: 1.65 µM.

For `CCn1c(=O)c2cc(C(=O)N3CCN(C(=O)c4ccco4)CC3)sc2c2ccccc21`, which “activity change, negative = inhibition” value is on record?
Its value is inactive: 5.39%.

Which Potency does the source give for `Cc1cc(-c2csc(NC(=O)c3ccccc3C(F)(F)F)n2)c(C)n1Cc1ccccc1` here?
Its Potency is inconclusive: 18.5 µM [inhibitor, single point].

Which “activity change, negative = inhibition” value does the source give for `Cc1ccc(S(=O)(=O)N2CC(C(=O)O)=CC[C@H]2c2ccc(Cl)cc2)cc1` here?
Its value is inactive: 56.3%.

Which “activity change, negative = inhibition” value does the source give for `CC(C)C(NC(=O)c1c(F)cccc1F)C(=O)N1CCN(c2ccccc2F)CC1` (stereo not given) here?
The value was inactive: -29.1%.

Which Potency does the source give for `COc1cccc(CNc2ccc3c(c2)nc(C)n3C)c1OC` here?
Its Potency is inconclusive: 9.28 µM [inhibitor, partial curve, poor fit].

Which Potency does the source give for `COC(=O)c1ccc(-c2nc3ccccc3o2)cc1` here?
The Potency was inconclusive: 18.5 µM [inhibitor, single point].

With `Cc1ccc(CNc2ncnc3cc(Cl)ccc23)cc1` as the molecule, how does the Potency read?
The Potency was inconclusive: 18.5 µM [inhibitor, single point].

Which “activity change, negative = inhibition” value does the source give for `COC(=O)c1cn(C(=O)c2cc(Br)ccc2Cl)c2ccccc12` here?
The value was inactive: 68.2%.

For `COc1cccc(C2=NN(C(=O)c3ccco3)C(c3ccco3)C2)c1` (stereo not given), which “activity change, negative = inhibition” value is on record?
The value was inactive: -23.1%.

With `Nc1nc2[nH]cc(CCc3ccc(C(=O)NC(CCC(=O)O)C(=O)O)cc3)c2c(=O)[nH]1` (stereo not given) as the molecule, how does the Potency read?
The Potency was active: 1.35 µM.

With `O=S(=O)(c1ccccc1)c1nc(-c2ccccc2)oc1NCc1cccnc1` as the molecule, how does the Potency read?
The Potency was inconclusive: 10.4 µM [inhibitor, single point].

With `Cc1ccccc1S(=O)(=O)Cc1ccc(C(=O)NCCCN2CCCC2)o1` as the molecule, how does the Potency read?
The Potency was inconclusive: 2.08 µM [inhibitor, full curve, poor fit].

With `O=C(NCCN1CCOCC1)c1cc(Sc2ccccc2Cl)nc2ccccc12` as the molecule, how does the Potency read?
The Potency was inconclusive: 6.57 µM [inhibitor, partial curve, poor fit].

For `Cc1n[nH]c(=O)c2c(NC(=O)COC(=O)c3ncc(Cl)c(Cl)c3Cl)oc(C)c12`, which “activity change, negative = inhibition” value is on record?
The value was inactive: 22%.

With `Cc1ccc(-n2nc3c(=O)n(CCCC(=O)NCc4ccccc4Cl)nc(C)c3c2C)cc1` as the molecule, how does the Potency read?
Its Potency is active: 2.62 µM.

With `CC(C(=O)Nc1ccc(N(C)C)cc1)N1C(=O)c2ccccc2S1(=O)=O` (stereo not given) as the molecule, how does the Potency read?
Its Potency is inconclusive: 14.7 µM [inhibitor, single point].

With `CCOC(=O)c1sc(N2N=C(C)/C(=C\c3ccc(OCC(=O)OC)cc3)C2=O)nc1C` as the molecule, how does the “activity change, negative = inhibition” value read?
The value was inactive: 8.12%.

For `Cc1ccc(C(=O)NS(=O)(=O)c2ccccc2)cc1`, which “activity change, negative = inhibition” value is on record?
The value was inactive: 10.3%.

With `O=C1NCC(COCc2ccccc2)O1` (stereo not given) as the molecule, how does the Potency read?
Its Potency is active: 5.22 µM.

For `CCNc1nc(Cl)nc(NCc2ccccc2)n1`, which Potency is on record?
Its Potency is inconclusive: 2.62 µM [inhibitor, partial curve].

For `O=C1CN(C(=O)Cn2ncc(Cl)c(Cl)c2=O)c2ccccc2N1`, which Potency is on record?
The Potency was inconclusive: 5.86 µM [inhibitor, partial curve, poor fit].

With `CCOC(=O)[C@@H]1[C@H]2COc3ccccc3[C@@H]2N2C(=O)N(c3ccc(C)cc3)C(=O)[C@]12C` as the molecule, how does the “activity change, negative = inhibition” value read?
Its value is inactive: -14.5%.

For `CCN(CC)S(=O)(=O)c1ccc2c(c1)nc(CCC(=O)O)n2C`, which “activity change, negative = inhibition” value is on record?
The value was inactive: 5.19%.

Which “activity change, negative = inhibition” value does the source give for `CCOC(=O)C1CCN(c2c(Nc3ccc4c(c3)OCCO4)c(=O)c2=O)CC1` here?
Its value is inactive: -24.8%.

With `Cc1ccsc1/C=N/NC(=O)CNC(=O)c1ccccc1` as the molecule, how does the “activity change, negative = inhibition” value read?
Its value is inactive: 49.1%.

For `C/C(=N\OCc1ccccc1)c1c(O)cc(C(C)C)n(-c2ccccc2)c1=O`, which “activity change, negative = inhibition” value is on record?
Its value is inactive: -21.7%.

For `CCCCn1c(N)c(N(CCC(C)C)C(=O)c2cc(S(=O)(=O)N3CCOCC3)ccc2F)c(=O)[nH]c1=O`, which Potency is on record?
The Potency was inconclusive: 11.7 µM [inhibitor, single point].

Which Potency does the source give for `COc1cccc(-c2nn(-c3ccc(C)cc3)cc2C(=O)NCC(c2cccs2)N2CCOCC2)c1` (stereo not given) here?
Its Potency is inconclusive: 1.85 µM [inhibitor, full curve, poor fit].

Which Potency does the source give for `CCn1c(SCC(=O)Nc2ccc3c(c2)OCO3)nc2c1c(=O)n(C)c(=O)n2C` here?
The Potency was inconclusive: 9.28 µM [inhibitor, partial curve].

For `COC(=O)C(NC(=O)c1ccccc1C(=O)O)c1ccc2ccccc2c1` (stereo not given), which “activity change, negative = inhibition” value is on record?
The value was inactive: -6.35%.

For `COc1ccc(C)cc1NC(=O)NC1CCCCCCC1`, which Potency is on record?
The Potency was inconclusive: 2.62 µM [inhibitor, partial curve, poor fit].

Which Potency does the source give for `CCc1sc(C(=O)NCCCn2ccnc2)cc1Br` here?
Its Potency is inconclusive: 13.1 µM [inhibitor, partial curve].

For `NC(=O)C1=C[C@@H](c2ccc(C(F)(F)F)cc2)C[C@@H](OCc2ccc(CO)cc2)O1`, which “activity change, negative = inhibition” value is on record?
The value was inactive: -4.64%.

Which Potency does the source give for `CC(C)NC(=O)Cn1c(SCC(=O)N2CCc3ccccc3C2)nc2ccccc21` here?
Its Potency is inconclusive: 18.5 µM [inhibitor, single point].
